Experimental data as given in patent publication US8481749B2, “N-(tetrazol-5-yl)- and N-(triazol-5-yl)arylcarboxamides and their use as herbicides” (Bayer Cropscience AG, priority 2010, dated 2013).
Some of these results come from one statement about several compounds together.

Tests used:
Type in all cases: in vivo
Amaranthus retroflexus [1] = assay: Pre-emergence herbicidal action against harmful plants; details: application rate 80 g/ha, visual assessment after 3 weeks vs untreated controls (100%=plants have died, 0%=like control)
Abutilon theophrasti [2] = assay: Post-emergence herbicidal action against harmful plants; details: post-emergence (one-leaf stage), application rate 80 g/ha, visual rating after about 3 weeks vs untreated controls
Matricaria inodora = assay: Pre-emergence herbicidal action against harmful plants; details: application rate 80 g/ha, visual assessment after 3 weeks vs untreated controls (100%=plants have died, 0%=like control)
Veronica persica [3] = assay: as above; details: application rate 80 g/ha, visual assessment after 3 weeks vs untreated controls (100%=plants have died, 0%=like control)
Echinocloa crus galli = assay: as above; details: application rate 80 g/ha, visual assessment after 3 weeks vs untreated controls (100%=plants have died, 0%=like control)
Viola tricolor = assay: Post-emergence herbicidal action against harmful plants; details: post-emergence (one-leaf stage), application rate 80 g/ha, visual rating after about 3 weeks vs untreated controls
Amaranthus retroflexus [4] = assay: as above; details: post-emergence (one-leaf stage), application rate 80 g/ha, visual rating after about 3 weeks vs untreated controls
Veronica persica [5] = assay: as above; details: post-emergence (one-leaf stage), application rate 80 g/ha, visual rating after about 3 weeks vs untreated controls
Abutilon theophrasti [6] = assay: Pre-emergence herbicidal action against harmful plants; details: application rate 80 g/ha, visual assessment after 3 weeks vs untreated controls (100%=plants have died, 0%=like control)

Cc1c(C(=O)Nc2nnnn2C)ccc(S(C)(=O)=O)c1C1=NOCC1 [Compound 4-144]
at least 80%: herbicidal activity in percent against Amaranthus retroflexus (Amaranthus retroflexus [1]) | herbicidal activity in percent against Abutilon theophrasti (Abutilon theophrasti [2]) | herbicidal activity in percent against Matricaria inodora (Matricaria inodora) | herbicidal activity in percent against Veronica persica (Veronica persica [3]) | herbicidal activity in percent against Echinocloa crus galli (Echinocloa crus galli) | herbicidal activity in percent against Viola tricolor (Viola tricolor) | herbicidal activity in percent against Amaranthus retroflexus (Amaranthus retroflexus [4]) | herbicidal activity in percent against Veronica persica (Veronica persica [5]) | herbicidal activity in percent against Abutilon theophrasti (Abutilon theophrasti [6])

Cn1nnnc1NC(=O)c1ccc(S(C)(=O)=O)c(COCC(F)(F)F)c1Cl [Compound 4-260]
at least 80%: herbicidal activity in percent against Amaranthus retroflexus (Amaranthus retroflexus [1]) | herbicidal activity in percent against Abutilon theophrasti (Abutilon theophrasti [2]) | herbicidal activity in percent against Matricaria inodora (Matricaria inodora) | herbicidal activity in percent against Veronica persica (Veronica persica [3]) | herbicidal activity in percent against Echinocloa crus galli (Echinocloa crus galli) | herbicidal activity in percent against Viola tricolor (Viola tricolor) | herbicidal activity in percent against Amaranthus retroflexus (Amaranthus retroflexus [4]) | herbicidal activity in percent against Veronica persica (Veronica persica [5]) | herbicidal activity in percent against Abutilon theophrasti (Abutilon theophrasti [6])

Cc1c(C(=O)Nc2ncnn2C(C)C)ccc(C(F)(F)F)c1S(C)(=O)=O [Compound 7-30]
at least 80%: herbicidal activity in percent against Amaranthus retroflexus (Amaranthus retroflexus [1]) | herbicidal activity in percent against Abutilon theophrasti (Abutilon theophrasti [2]) | herbicidal activity in percent against Matricaria inodora (Matricaria inodora) | herbicidal activity in percent against Veronica persica (Veronica persica [3]) | herbicidal activity in percent against Echinocloa crus galli (Echinocloa crus galli) | herbicidal activity in percent against Viola tricolor (Viola tricolor) | herbicidal activity in percent against Amaranthus retroflexus (Amaranthus retroflexus [4]) | herbicidal activity in percent against Veronica persica (Veronica persica [5]) | herbicidal activity in percent against Abutilon theophrasti (Abutilon theophrasti [6])

Cn1nnnc1NC(=O)c1ccc(C(F)(F)F)nc1Cl [Compound 8-10]
at least 80%: herbicidal activity in percent against Amaranthus retroflexus (Amaranthus retroflexus [1]) | herbicidal activity in percent against Abutilon theophrasti (Abutilon theophrasti [2]) | herbicidal activity in percent against Matricaria inodora (Matricaria inodora) | herbicidal activity in percent against Veronica persica (Veronica persica [3]) | herbicidal activity in percent against Echinocloa crus galli (Echinocloa crus galli) | herbicidal activity in percent against Viola tricolor (Viola tricolor) | herbicidal activity in percent against Amaranthus retroflexus (Amaranthus retroflexus [4]) | herbicidal activity in percent against Veronica persica (Veronica persica [5]) | herbicidal activity in percent against Abutilon theophrasti (Abutilon theophrasti [6])

CCCn1nnnc1NC(=O)c1ccc(C(F)(F)F)nc1COCCOC [Compound 8-79]
at least 80%: herbicidal activity in percent against Amaranthus retroflexus (Amaranthus retroflexus [1]) | herbicidal activity in percent against Abutilon theophrasti (Abutilon theophrasti [2]) | herbicidal activity in percent against Matricaria inodora (Matricaria inodora) | herbicidal activity in percent against Veronica persica (Veronica persica [3]) | herbicidal activity in percent against Echinocloa crus galli (Echinocloa crus galli) | herbicidal activity in percent against Viola tricolor (Viola tricolor) | herbicidal activity in percent against Amaranthus retroflexus (Amaranthus retroflexus [4]) | herbicidal activity in percent against Veronica persica (Veronica persica [5]) | herbicidal activity in percent against Abutilon theophrasti (Abutilon theophrasti [6])
